Measurements taken from PubChem BioAssay AID248 (DTP/NCI, 2004).
The list is a part of this screen's results and no random one: it is rich in T/C values a quarter to a half above the control, in often repeated tests (any T/C) and in doses without a T/C. Further doses and runs are listed elsewhere. T/C is the treated group as % of the vehicle group. Some doses have a count of surviving animals in place of a T/C: the source holds a T/C of zero for them, seemingly a mark for toxic or unscored doses. Some survivor counts are full or nearly so, which does not show that the dose was tolerated: survival well below the control is almost never listed, so the zero probably covers shortened survival too. Survivors were counted at the toxicity check, usually on the fifth day, unless a day is given; later deaths do not show. Schedule codes are those of the source, read here as Q, the interval in days (D) or hours (H), X, the number of doses. Some doses were run more than once; their values stand side by side, smallest first. Some schedule codes hold Z or #, which are not explained here. For survival time, the PubChem record calls one and a half times the control and up active, and a quarter to a half above the control has no call in these data; cut-offs in other NCI protocols can differ. Signs of the kind (2×) give the number of equal values in this list. Some T/C values are followed by the survivors on the day toxicity was checked, most often the fifth; where none is given, no animal had died by that day.

Test system: L1210 leukemia ip in BDF1 mice, survival T/C
Test: NCI In Vivo Anticancer Drug Screen. Data for tumor model L1210 Leukemia (intraperitoneal) in B6D2F1 (BDF1) mice
Conditions: T/C endpoint: mean survival time, higher T/C = longer survival
[1] = dose: 120.0 mg/kg/injection, schedule: Q01DX Z (ip), vehicle: saline
[2] = dose: 180.0 mg/kg/injection, schedule: Q01DX Z (ip), vehicle: saline
[3] = dose: 212.0 mg/kg/injection, schedule: Q01DX Z (oral), vehicle: saline
[4] = dose: 240.0 mg/kg/injection, schedule: Q01DX Z (ip), vehicle: saline
[5] = dose: 250.0 mg/kg/injection, schedule: Q01DX001 (ip), vehicle: saline
[6] = dose: 270.0 mg/kg/injection, schedule: Q01DX Z (ip), vehicle: carboxymethylcellulose (CMC)
[7] = dose: 270.0 mg/kg/injection, schedule: Q01DX Z (ip), vehicle: saline

SMILES: CN(C)c1ccc(Nc2c3ccccc3nc3ccccc23)cc1
- T/C (dose: 120.0 mg/kg/injection, schedule: Q01DX Z (ip), vehicle: carboxymethylcellulose (CMC)): 147 % of control
- survivor count (dose: 120.0 mg/kg/injection, schedule: Q01DX Z (ip), vehicle: methylcellulose (MC)): 4 of 6 and 5 of 6
- survivor count (dose: 120.0 mg/kg/injection, schedule: Q01DX Z (ip), vehicle: olive oil, sesame oil, peanut oil): 1 of 6
- T/C [1]: 90, 105 (2×), 109, 154, 160, 174, 180 % of control
- survivor count [1]: 6 of 6
- T/C (dose: 120.0 mg/kg/injection, schedule: Q01DX Z (oral), vehicle: saline): 142 % of control
- T/C (dose: 120.0 mg/kg/injection, schedule: Q01DX Z (sc), vehicle: olive oil, sesame oil, peanut oil): 132 % of control
- T/C (dose: 125.0 mg/kg/injection, schedule: Q01DX001 (ip), vehicle: saline): 125 % of control
- T/C (dose: 140.0 mg/kg/injection, schedule: Q01DX Z (oral), vehicle: saline): 128 % of control (2×)
- T/C (dose: 150.0 mg/kg/injection, schedule: Q03DX006 (oral), vehicle: saline): 133 % of control
- T/C (dose: 159.0 mg/kg/injection, schedule: Q01DX Z (ip), vehicle: saline): 125 % of control
- survivor count (dose: 160.0 mg/kg/injection, schedule: Q01DX005 (ip), vehicle: saline): 0 of 10
- survivor count (dose: 160.0 mg/kg/injection, schedule: Q01DX009 (ip), vehicle: saline): 0 of 10
- survivor count (dose: 180.0 mg/kg/injection, schedule: Q01DX007 (iv), vehicle: saline): 0 of 6
- survivor count (dose: 180.0 mg/kg/injection, schedule: Q01DX009 (ip), vehicle: saline): 0 of 6 and 1 of 6
- survivor count (dose: 180.0 mg/kg/injection, schedule: Q01DX Z (ip), vehicle: methylcellulose (MC)): 2 of 6 and 6 of 6
- T/C [2]: 87, 106, 109, 121, 141, 170 % of control
- survivor count [2]: 3 of 6 and 6 of 6
- survivor count (dose: 200.0 mg/kg/injection, schedule: Q01DX001 (ip), vehicle: saline): 0 of 10
- survivor count (dose: 200.0 mg/kg/injection, schedule: Q01DX005 (ip), vehicle: other): 0 of 6
- survivor count (dose: 200.0 mg/kg/injection, schedule: Q01DX009 (ip), vehicle: saline): 3 of 6 and 6 of 6
- T/C (dose: 200.0 mg/kg/injection, schedule: Q01DX Z (im), vehicle: saline): 143 % of control
- T/C (dose: 200.0 mg/kg/injection, schedule: Q04DX003 (ip), vehicle: Klucel (hydroxypropylcellulose) (HPC)): 145 % of control
- survivor count (dose: 200.0 mg/kg/injection, schedule: Q04DX003 (ip), vehicle: other): 3 of 6
- survivor count (dose: 200.0 mg/kg/injection, schedule: Q04DX003 (ip), vehicle: saline): 0 of 10 and 3 of 6
- survivor count (dose: 200.0 mg/kg/injection, schedule: Q#A X Z (oral), vehicle: saline): 6 of 6
- T/C [3]: 128 % of control
- survivor count [3]: 5 of 6
- survivor count (dose: 240.0 mg/kg/injection, schedule: Q01DX Z (ip), vehicle: olive oil, sesame oil, peanut oil): 0 of 6
- T/C [4]: 146 % of control
- survivor count [4]: 4 of 6
- survivor count (dose: 240.0 mg/kg/injection, schedule: Q01DX Z (oral), vehicle: olive oil, sesame oil, peanut oil): 3 of 6
- T/C (dose: 240.0 mg/kg/injection, schedule: Q01DX Z (sc), vehicle: olive oil, sesame oil, peanut oil): 146 % of control
- T/C (dose: 240.0 mg/kg/injection, schedule: Q01DX Z (sc), vehicle: saline): 136 % of control
- T/C (dose: 250.0 mg/kg/injection, schedule: Q01DX001 (ip), vehicle: other): 132 % of control
- T/C [5]: 135 % of control
- survivor count [5]: 2 of 6
- T/C [6]: 90 and 100 % of control
- survivor count [6]: 6 of 6 and 7 of 7
- survivor count (dose: 270.0 mg/kg/injection, schedule: Q01DX Z (ip), vehicle: methylcellulose (MC)): 1 of 6 and 6 of 6
- T/C [7]: 103 and 124 % of control
- survivor count [7]: 0 of 6 and 6 of 6
- T/C (dose: 300.0 mg/kg/injection, schedule: Q03DX006 (oral), vehicle: saline): 131 % of control
- survivor count (dose: 320.0 mg/kg/injection, schedule: Q01DX Z (oral), vehicle: saline): 5 of 6
- T/C (dose: 350.0 mg/kg/injection, schedule: Q01DX001 (oral), vehicle: saline): 130 % of control
- T/C (dose: 360.0 mg/kg/injection, schedule: Q01DX Z (ip), vehicle: saline): 144 % of control
- T/C (dose: 371.0 mg/kg/injection, schedule: Q01DX Z (ip), vehicle: saline): 130 % of control
- survivor count (dose: 400.0 mg/kg/injection, schedule: Q01DX001 (ip), vehicle: saline): 0 of 10
- survivor count (dose: 400.0 mg/kg/injection, schedule: Q01DX Z (ip), vehicle: carboxymethylcellulose (CMC)): 6 of 6 and 7 of 7
- survivor count (dose: 400.0 mg/kg/injection, schedule: Q04DX003 (ip), vehicle: other): 2 of 6 and 4 of 6
- survivor count (dose: 400.0 mg/kg/injection, schedule: Q04DX003 (ip), vehicle: saline): 0 of 10, 0 of 6, 3 of 6
- survivor count (dose: 400.0 mg/kg/injection, schedule: Q06HX012 (ip), vehicle: saline): 0 of 10
- survivor count (dose: 400.0 mg/kg/injection, schedule: Q#A X Z (oral), vehicle: saline): 4 of 6
- survivor count (dose: 480.0 mg/kg/injection, schedule: Q01DX Z (ip), vehicle: olive oil, sesame oil, peanut oil): 0 of 6
- survivor count (dose: 480.0 mg/kg/injection, schedule: Q01DX Z (ip), vehicle: saline): 0 of 6
- survivor count (dose: 480.0 mg/kg/injection, schedule: Q01DX Z (oral), vehicle: olive oil, sesame oil, peanut oil): 1 of 6
- survivor count (dose: 480.0 mg/kg/injection, schedule: Q01DX Z (oral), vehicle: saline): 1 of 6
- survivor count (dose: 480.0 mg/kg/injection, schedule: Q01DX Z (sc), vehicle: olive oil, sesame oil, peanut oil): 2 of 6
- T/C (dose: 500.0 mg/kg/injection, schedule: Q01DX001 (ip), vehicle: saline): 132 [4 of 6 alive] and 148 % of control [4 of 6 alive]
- T/C (dose: 560.0 mg/kg/injection, schedule: Q01DX Z (ip), vehicle: saline): 130 % of control
- survivor count (dose: 600.0 mg/kg/injection, schedule: Q01DX Z (ip), vehicle: carboxymethylcellulose (CMC)): 6 of 7 and 6 of 6
- T/C (dose: 700.0 mg/kg/injection, schedule: Q01DX001 (oral), vehicle: saline): 148 % of control
- T/C (dose: 700.0 mg/kg/injection, schedule: Q07DX003 (oral), vehicle: saline): 134 % of control [5 of 6 alive]
- survivor count (dose: 720.0 mg/kg/injection, schedule: Q01DX Z (oral), vehicle: saline): 1 of 6
- survivor count (dose: 960.0 mg/kg/injection, schedule: Q01DX Z (sc), vehicle: olive oil, sesame oil, peanut oil): 2 of 6
- T/C (dose: 960.0 mg/kg/injection, schedule: Q01DX Z (sc), vehicle: saline): 133 % of control
- survivor count (dose: 1000.0 mg/kg/injection, schedule: Q01DX001 (ip), vehicle: other): 0 of 6
- survivor count (dose: 1000.0 mg/kg/injection, schedule: Q01DX001 (ip), vehicle: saline): 0 of 6
- survivor count (dose: 1200.0 mg/kg/injection, schedule: Q03DX006 (oral), vehicle: saline): 3 of 6
- survivor count (dose: 1400.0 mg/kg/injection, schedule: Q01DX001 (oral), vehicle: saline): 3 of 6
- survivor count (dose: 1400.0 mg/kg/injection, schedule: Q07DX003 (oral), vehicle: saline): 2 of 6
